The values are deposited in ChEMBL (CHEMBL3988442, “University of Dundee, Small-Polar-MMV Screening Library” (2021)).

Sequences of proteins named here, by UniProt entry; tags and fusion partners are left off.
UniProt P9WFT3, whole entry: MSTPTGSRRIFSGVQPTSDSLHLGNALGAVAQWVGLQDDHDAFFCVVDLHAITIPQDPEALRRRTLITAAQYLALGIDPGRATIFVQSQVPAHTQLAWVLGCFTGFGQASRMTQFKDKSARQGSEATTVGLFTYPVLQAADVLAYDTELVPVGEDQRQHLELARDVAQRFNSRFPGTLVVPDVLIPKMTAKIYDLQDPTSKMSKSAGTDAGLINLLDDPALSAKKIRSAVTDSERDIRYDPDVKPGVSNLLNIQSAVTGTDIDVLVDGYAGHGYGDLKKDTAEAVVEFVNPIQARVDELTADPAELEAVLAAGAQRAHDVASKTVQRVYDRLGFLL

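Tryptophan-tRNA ligase, Mycobacterium tuberculosis (UniProt P9WFT3). Enzyme assay of tryptophanyl-tRNA synthetase; the read-out is not stated. Concentration: 10 µM. Direction is not recorded; retested compounds ran higher, which suggests that high means inhibition. Of about 65,000 compounds tested this way, about 64 (0.098%) reached 50% or more in at least one test.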

Values are the deposited “Percent Effect”, in %. The controls that fix the scale are not given in the record; negative values are as filed. The compounds are a random part of those screened.

| # | SMILES | percent effect |
|---|---|---|
| 1 | `Cc1csc(NC(=O)CN(C)CCOc2cccc(F)c2)n1` | -2.365 |
| 2 | `CC(C(=O)N1CCOCC1)N1CCN(Cc2nccn2C)CC1` (configuration not stated) | -5.209 |
| 3 | `CC(C)(C)OC(=O)N1CCn2c(nnc2C2CCCNC2)C1` (configuration not stated) | 0.6911 |
| 4 | `Clc1cnc(NCc2ccccc2N2CCOCC2)nc1` | -1.903 |
| 5 | `CC(OCC(F)(F)F)C(=O)N1CCCCC1` (configuration not stated) | 3.207 |
| 6 | `CCn1c(C)nnc1CN(C)C1CCN(CCc2cccs2)C1` (configuration not stated) | 1.481 |
| 7 | `CNC(=O)Cn1cc(Nc2cccc(F)c2C#N)cn1` | 2.442 |
| 8 | `OCCNc1nc(NCCc2ccccc2)nc2nccnc12` | 0 |
| 9 | `O=C(Nc1cnn(Cc2ccc(Cl)cc2)c1)N[C@@H]1C=C[C@H](CO)C1` | -0.7009 |
| 10 | `CCNc1cc2c(nn1)CCN(C(=O)c1cccc3c1OCCO3)C2` | 5.516 |
| 11 | `CSc1ccc(NC(=O)Cn2cc(NC(C)=O)cn2)cc1` | 1.361 |
| 12 | `Cn1cc(CN2CCOC(Cc3cccc(F)c3)C2)cn1` (configuration not stated) | 3.401 |
| 13 | `Cc1ccc(C(C)NC(=O)CNCCn2cccn2)cc1C` (configuration not stated) | -5.161 |
| 14 | `COc1c(C)cnc(CN2CCn3c(C)nnc3C2)c1C` | 1.088 |
| 15 | `O=c1[nH]c(NC2CCCC2)nc2nccc(-c3ccsc3)c12` | -2.52 |
| 16 | `CC(CC(=O)O)CC(=O)Nc1sc2c(c1C(N)=O)CCc1ccccc1-2` (configuration not stated) | -1.455 |
| 17 | `O=C(c1ccc2nccnc2c1)N1CCN(CCO)[C@@H]2CS(=O)(=O)C[C@@H]21` | 2.763 |
| 18 | `COc1cc(Br)c(CNC2CCCNC2=O)cc1OC` (configuration not stated) | 0.3358 |
| 19 | `NC(=O)COc1ccc(CNCc2ccc(F)cc2)cc1` | 1.528 |
| 20 | `CCC(NC1CCN(S(C)(=O)=O)CC1)c1cccs1` (configuration not stated) | -3.832 |
| 21 | `O=C(Cn1cc(Cl)cn1)N1CCCC(c2cc3ccccc3cn2)C1` (configuration not stated) | 3.608 |
| 22 | `c1cc(-c2cn[nH]c2)ncc1CN1CCCCC1` | 0.3661 |
| 23 | `Cc1ccc(CN(C)C(=O)CN2CCCCC2Cn2cncn2)o1` (configuration not stated) | -3.792 |
| 24 | `CCc1nnc(CN2CCCC2Cn2cc(C)cn2)o1` (configuration not stated) | 9.781 |
| 25 | `O=C(NC1CCC1)[C@H]1C[C@@H]2[C@@H](C1)OCCN2CC1CC1` | -3.594 |
| 26 | `CC(C)N(C)S(=O)(=O)c1ccc2c(c1)CCN(C(=O)c1cscn1)C2` | 1.836 |
| 27 | `CCN(C(=O)NCCc1ccc(C)cc1C)C(C)CS(C)(=O)=O` (configuration not stated) | 1.445 |
| 28 | `c1ccc(-c2noc(CCCN3CCCC3Cn3cccn3)n2)cc1` (configuration not stated) | 5.085 |
| 29 | `Cc1cc(CN2CCCC(Cn3cncn3)C2)on1` (configuration not stated) | -8.575 |
| 30 | `CN1N=C(C(=O)NCCc2ccc(OC3CCCC3)cc2)CCC1=O` | 0.3067 |
| 31 | `CCC(=O)N(C)Cc1cccc(OC(C)C)c1` | -3.431 |
| 32 | `CCc1cc(N(C)Cc2nonc2C)nc(N2CCOCC2)n1` | 2.037 |
| 33 | `CC(C)CNC(=O)NC(=O)C(C)Nc1cccc(CN2CCOC2=O)c1` (configuration not stated) | -8.021 |
| 34 | `CC(C)(C)C(=O)N1CCN(CCOc2cccc(C#N)c2)CC1` | -3.269 |
| 35 | `O=C(NC[C@]12COC[C@H]1CN(Cc1ccncc1)C2)c1ccco1` | 4.229 |
| 36 | `CCn1c(C2CCCN(Cc3ccc(OC)c(C)c3C)C2)nn(C)c1=O` (configuration not stated) | -4.134 |
| 37 | `CCC(CN1CCCCC1)NC(=O)C1(c2cccc(F)c2)CC1` (configuration not stated) | -3.826 |
| 38 | `c1nc(N2CCCC2)cnc1C1CCNCC1` | 3.068 |
| 39 | `CCn1nc2c(cc1=O)CN(Cc1nc(-c3cccnc3)no1)CC2` | -1.768 |
| 40 | `CS(=O)(=O)CC(=O)NCC1OCCc2cn(CC3CC3)nc21` (configuration not stated) | -3.267 |
| 41 | `CC1(C)Cc2nc(C(C)(C)C)ncc2C(NC(=O)CN)C1` (configuration not stated) | 1.53 |
| 42 | `O=C1N(CC2CC2)C(c2cncs2)NC12CCCC2` (configuration not stated) | 2.724 |
| 43 | `Cc1cccn2c(=O)cc(CSCC(=O)Nc3nnc(C(C)C)s3)nc12` | 3.902 |
| 44 | `CCOc1ncccc1C(=O)N1CCCC(c2nccn2CCOC)C1` (configuration not stated) | 3.926 |
| 45 | `COc1ccc(-c2ccnc(C3CCNCC3)c2)cc1` | 0.2898 |
| 46 | `O=c1cc2c(nn1CN1CCN(c3ccc(F)cc3)CC1)CCC2` | -2.157 |
| 47 | `CC(C)N1c2sc(-c3ccccc3)nc2CC1C(=O)NC1CCCC1` (configuration not stated) | 2.013 |
| 48 | `COc1ccc(CN(C)CC2(O)CCN(C(=O)c3cccn3C)C2)cc1` (configuration not stated) | -1.087 |
| 49 | `CC1CN(C)c2ccccc2CN1C(=O)CSc1ccncc1` (configuration not stated) | 4.063 |
| 50 | `Cn1cc(Nc2cccc(C(=O)N(CC(N)=O)C3CCCC3)c2)cn1` | -0.08489 |
| 51 | `Cc1cc(C)c(CCNC(=O)CN2CCCN(C(N)=O)CC2)c(C)c1` | 1.125 |
| 52 | `Cc1ccc(N2CC[C@]3(O)CCN(CCN4CCCC4=O)C[C@@H]3C2)nn1` | -2.205 |
| 53 | `CCc1c(O)nc(SC(C)CC)n(-c2ccccc2)c1=O` (configuration not stated) | -0.4068 |
| 54 | `Cc1cc(N2CCCC2c2nnc3n2CCCCC3)nc(C)n1` (configuration not stated) | 1.708 |
| 55 | `c1ccc(CN2CCC3(CC2)CC(Oc2cccnc2)C3)nc1` | -9.076 |
| 56 | `O=C(c1c[nH]cn1)N1CCC(F)(F)C2(CCN(c3ncccn3)C2)C1` (configuration not stated) | 5.339 |
| 57 | `Nc1ccnn1C1CCN(Cc2ccccc2)C1` (configuration not stated) | -4.408 |
| 58 | `CN1CCN(Cc2noc(CCc3nc(-c4ccccc4)no3)n2)CC1` | 2.015 |
| 59 | `Cc1nc2c(c(NCc3ccc(-c4ccccn4)s3)n1)CCNCC2` | -5.121 |
| 60 | `C=C(C)CN(Cc1cccc(O)c1)C1CCC(O)CC1` (configuration not stated) | 2.85 |
| 61 | `CCN(CC)CCn1cnc(-c2ccccc2)c1-c1cnc(C)s1` | -2.75 |
| 62 | `Cc1ccc(C)c(C(NC(=O)C(C)(C)C)c2cccnc2)c1` (configuration not stated) | -3.638 |
| 63 | `CC(C)Nc1nc(O)cc(C2CC(=O)N(Cc3ccccc3)C2)n1` (configuration not stated) | -1.725 |
| 64 | `Cc1nnc2n1CCN(C(=O)C(C)Oc1ccc(C#N)cc1)C2` (configuration not stated) | -0.2138 |
| 65 | `CCN(CC(C)C#N)C(=O)CNc1ccc(C(N)=O)c(C)c1` (configuration not stated) | -5.677 |
| 66 | `COc1cccc(OCC(=O)N(C)c2cccnc2N(C)C)c1` | -0.8811 |
| 67 | `Cc1cc(F)ccc1C(=O)N1CCN(C)C2(CCC(=O)N(C)CC2)C1` (configuration not stated) | 3.759 |
| 68 | `CN(C)[C@@H]1CO[C@H](CNC(=O)c2ccccc2)[C@H]1O` | -5.648 |
| 69 | `CN(C)CCO[C@H]1CN(C(=O)c2cscn2)[C@@H]2COC[C@H]12` | 1.046 |
| 70 | `Cc1cnn(CC2CCCCN2Cc2cc(C)no2)c1` (configuration not stated) | -7.696 |
| 71 | `COc1ccc(OCC(O)CN2CCN(c3nccs3)CC2)cc1` (configuration not stated) | 6.445 |
| 72 | `OC(CN1CCC(c2ccn[nH]2)CC1)c1ccc(F)cc1F` (configuration not stated) | -3.625 |
| 73 | `CC(C)(C)NS(=O)(=O)c1cc(NC(=O)C2CC2)ccc1F` | -6.133 |
| 74 | `COc1cccc(-c2n[nH]cc2CNC2CCN(C(C)C)CC2)c1` | -1.508 |
| 75 | `Cc1n[nH]c(C)c1C1COCCN1C(=O)c1cc(F)ccc1F` (configuration not stated) | 15.64 |
| 76 | `CN1CCN(Cc2cccc(C#N)c2)Cc2cccnc21` | -0.9931 |
| 77 | `CN1CCC(N(Cc2ccccc2F)C(=O)NCc2ccncc2)CC1` | -3.367 |
| 78 | `O=C(Cn1cnnn1)N1CCCCC1Cn1cccn1` (configuration not stated) | 1.338 |
| 79 | `CCC1=N[C@@]2(CC[C@@H]3CN(CC(C)C)C[C@@H]32)C(=O)N1` | -2.891 |
| 80 | `O=C(COc1ccccc1F)NCCC(O)c1ccoc1` (configuration not stated) | 0.3708 |
| 81 | `CN1CCN(CCCNCc2cc(O)c3cc(F)ccc3n2)CC1` | 1.06 |
| 82 | `Cc1cc(F)ccc1S(=O)(=O)NCC(O)c1cccn1C` (configuration not stated) | -2.052 |
| 83 | `Cc1noc(OCc2ccc(C#N)cc2)n1` | 5.926 |
| 84 | `Cc1ccccc1N1CCCN(C(=O)CCc2ccncc2)CC1` | -4.642 |
| 85 | `Cc1nc2ccc(C(=O)N3CCn4c(C)nnc4C3)cc2nc1C` | -0.2546 |
| 86 | `O=S(=O)(CCN1CCc2c(ncn2C2CC2)C1)c1ccccc1` | 8.164 |
| 87 | `O=S(=O)(C1CC1)N1CCC2(COCc3cnc(NCC4CC4)nc32)C1` (configuration not stated) | 0.1501 |
| 88 | `CN1CCO[C@@H]2CN(C(=O)COc3cccc(Cl)c3)C[C@@H]2C1` | -4.423 |
| 89 | `CNS(=O)(=O)CC(=O)N(Cc1c(F)cccc1Cl)C1CC1` | -5.142 |
| 90 | `O=C(NCc1ccccc1Cn1cncn1)C1CCC1` | -7.602 |
| 91 | `CC(C)Oc1ccc(C(=O)N2CCCC2c2cnn(C)c2)cn1` (configuration not stated) | 0.6603 |
| 92 | `Cc1nn(C)cc1CN1CCC(C2Nc3ccccc3S(=O)(=O)N2)CC1` (configuration not stated) | -1.254 |
| 93 | `COCC1(C(=O)N[C@H]2CN(c3noc(C)n3)C[C@@H]2C2CC2)CCC1` | 1.519 |
| 94 | `CN(Cc1cccc(CCN)c1)Cc1cccc2ncccc12` | -5.482 |
| 95 | `CC(=O)NCC(=O)N1CCC2(CC1)CN(c1cccnc1)C(=O)CO2` | 2.005 |
| 96 | `O=C(NCCN1CCCCCC1=O)c1ccn(-c2ccc(F)cc2)n1` | -3.208 |
| 97 | `CN(C)c1cccc(C2CCCN2Cc2nnnn2C2CC2)c1` (configuration not stated) | 1.146 |
| 98 | `CN1CCCN(S(=O)(=O)c2cn(C)cn2)c2cc(Cl)ccc21` | -7.282 |
| 99 | `Cc1nc(C(=O)N2CCCC(c3cc(C(F)(F)F)[nH]n3)C2)c[nH]1` (configuration not stated) | -6.671 |